We go through 36 compounds from PubChem BioAssay AID2685 (National Center for Advancing Translational Sciences (NCATS), 2010).

The structures appear in SMILES notation. The list shows a part of the results. Shown are side measurements of this screen, not its main read-out; they come without a call. Compounds called inactive in the main read-out are mostly missing here. Words in brackets tell the shape of the fitted curve; partial curves, single points and poor fits give uncertain potencies.

The assay can be described thus: qHTS Assay for Lipid Storage Modulators in Drosophila S3 Cells.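 For cell number change: cells counted by Cell Tracker Red CMTPX staining in the red channel.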 Conditions: BODIPY lipid droplet fluorescence, 18-24 h; for cell number change: measured here: cell count max response, cells fed with added oleic acid. Put shortly:
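Laser-scanning cytometry quantifies lipid droplet accumulation (500–530 nm total intensity; droplet/cell object ratio) in oleic acid-fed (400 uM added) Drosophila S3 cells treated with a concentration series. 20 uM Triacsin C defined 100% inhibition.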
(qHTS replaces the single test concentration by a dilution series.)

[1] abbreviates: measured here: lipid fluorescence (Fed channel) AC50, cells fed with added oleic acid.
The mark [2] stands for this setting: measured here: cell number channel AC50, cells fed with added oleic acid.

As a reminder, the AC50 is the midpoint of the concentration-response curve, whichever way the signal moves. `COc1cc(NC(=O)c2cccs2)c(OC)cc1NC(=O)Cc1ccccc1`: the cell number change is 22.6%. Besides, the AC50 under setting [1] was 29.1 µM [falling, single point].

On to `COc1ccc(OC)c(CN2CCN(C(=O)c3cc(S(=O)(=O)Nc4ccccc4OC)ccc3C)CC2)c1`, for which the cell number change was -28.5%.

Take `COc1cc2c(cc1OC)C1=NC(=O)CN1C(SCc1ccccc1)=N2`: the cell number change was -6.41%.

Consider `CCCCCN(C(=O)CCC(=O)OCCOc1ccccc1Cl)c1c(N)n(CCCC)c(=O)[nH]c1=O`, for which the cell number change was found to be 16.9%. For the same compound, the AC50 under setting [1] was 5.8 µM [rising, single point].

For the compound `NC(=O)C1CCN(CCC(=O)Nc2ccc(Br)cc2)CC1`, the cell number change was -20.8%. Under setting [2], the concentration at half-maximal activity (AC50) is 6.51 µM [falling, single point]. Under setting [1], the AC50 was 0.731 µM [falling, full curve, poor fit].

Turning to `Cc1cccc(-c2nn(-c3ccccc3)cc2C(=O)Nc2cccc(S(=O)(=O)NC3=NCCC3)c2)c1`, the cell number change is 6.43%.

Turning to `COc1ccccc1NC1=NC2(CCCC2)N=C(N)N1`, the cell number change is -111%. Besides, the AC50 under setting [2] is 20.6 µM [falling, partial curve].

Regarding `Cc1c(NC(=O)COC(=O)/C=C/c2ccc(Cl)cc2)c(=O)n(-c2ccccc2)n1C`, the cell number change stood at 57.9%. The AC50 under setting [2] was 23.1 µM [rising, single point].

For `CC1(C(=O)Nc2cccc(C(F)(F)F)c2)CO1` (stereo not given), the cell number change is -57.2%. For the same compound, the AC50 under setting [2] is 29.1 µM [falling, single point].

With `Cc1ccc(O)c(N=Cc2sc3ccccc3c2Cl)c1`, the AC50 reads like this: under setting [2], 6.51 µM [rising, partial curve, poor fit]; under setting [1], 6.51 µM [rising, partial curve].

With `COc1ccc2nc(NC(=O)Cc3ccc(OC)c(S(=O)(=O)N4CCOCC4)c3)sc2c1`, the cell number change is -16%. In addition, the AC50 under setting [1] was 16.4 µM [falling, single point].

As for `Cn1nccc1C(=O)N/N=C/c1cccnc1`, the cell number change is -23.2%. Under setting [2], the AC50 is 0.291 µM [falling, full curve]. Further, the AC50 under setting [1] is 0.411 µM [falling, full curve].

Take `Cc1c(C(=O)N/N=C/c2cccnc2)sc(=S)n1C`: the cell number change turned out to be 10.9%. Also, under setting [1], the AC50 is 9.2 µM [rising, single point].

Consider `CCSc1nn2c(=O)c3ccccc3nc2s1`, for which the cell number change was 1.63%. For the same compound, the AC50 under setting [1] was 1.84 µM [falling, partial curve, poor fit].

With `COc1ccc(N(CC(=O)NC(C)(C)C)C(=O)CCC(=O)Nc2nccs2)cc1`, the cell number change was 5.7%. In addition, the AC50 under setting [1] was 0.731 µM [rising, single point].

For `O=C(NCCCN1CCOCC1)C1CCN(S(=O)(=O)c2cccc(C(F)(F)F)c2)CC1`, the cell number change is -12%. In addition, the AC50 under setting [1] was 2.31 µM [falling, partial curve].

For `CN(C)CCCN(C(=O)CCOc1ccccc1)c1nc2ccc(F)cc2s1`, the cell number change is -69.8%. The AC50 under setting [2] is 29.1 µM [falling, single point]. Under setting [1], the AC50 is 29.1 µM [falling, single point].

For `O=C(Nc1ccc(-c2nc3ccccc3o2)cc1)c1cccnc1`, the cell number change is -12%. The AC50 under setting [1] was 0.461 µM [falling, full curve, poor fit].

For `COc1ccc(-n2c(Cc3cccn3C)nnc2SCC(=O)Nc2cccc(NC(C)=O)c2)cc1`, the cell number change was -10.4%. Under setting [1], the AC50 is 32.6 µM [falling, single point].

With `C=CCn1c(SCC(=O)Nc2sccc2C(N)=O)nc2ccc(Cl)cc2c1=O`, the cell number change is -6.63%. Further, the AC50 under setting [1] is 16.4 µM [falling, single point].

In the case of `C=C(C)CN1C(=O)C2(OCCO2)c2ccccc21`, the cell number change came to 46.8%. The AC50 under setting [2] was 16.4 µM [rising, partial curve].

In the case of `CCOc1ccc(NC(=O)C2CCC(C)(C(=O)O)C2(C)C)cc1` (stereo not given), the cell number change turned out to be 9.17%. Moreover, under setting [1], the AC50 is 20.6 µM [rising, partial curve].

Regarding `CC(=O)Nc1cccc(C(=O)OCC(=O)NC(=O)Cc2ccccc2)c1`, the cell number change came out at 33.4%. In addition, the AC50 under setting [2] is 11.6 µM [rising, single point]. The AC50 under setting [1] was 20.6 µM [rising, partial curve, poor fit].

With `O=C(O)c1ccc(NS(=O)(=O)c2cccc(C(=O)Nc3ccc(Br)cc3)c2)cc1`, the cell number change was 1.46%. Moreover, the AC50 under setting [1] is 0.651 µM [rising, single point].

With `NNC(=O)CS(=O)(=O)CS(=O)(=O)CC(=O)NN`, the cell number change came out at 0.66%. Moreover, the AC50 under setting [1] is 2.59 µM [falling, single point].

As to `COc1ccccc1NC(=O)C1CCN(S(=O)(=O)c2cccc3nonc23)CC1`, the cell number change was -26.2%. In addition, under setting [2], the AC50 was 2.31 µM [falling, single point]. Moreover, the AC50 under setting [1] was 29.1 µM [falling, single point].

Take `Cc1cc(C(=O)Nc2ccc(S(=O)(=O)N3CCCC3)cc2)cs1`: the cell number change was -0.811%. Further, the AC50 under setting [1] was 5.8 µM [rising, partial curve, poor fit].

For `COc1ccccc1OCc1ccc(C(=O)Nc2ccccc2)cc1`, the cell number change was -18.7%. Besides, the AC50 under setting [1] is 0.82 µM [falling, full curve, poor fit].

For the compound `Cn1c2ccccc2c2ncn(Cc3ccco3)c(=O)c21`, the cell number change was -18.9%.

Consider `COc1ccc(N(C(=O)CNC(=O)c2ccco2)C(C(=O)NC2CCCCC2)c2cccnc2)cc1` (stereo not given), for which the cell number change is 23.1%. Under setting [2], the AC50 was 2.31 µM [rising, full curve, poor fit]. Also, under setting [1], the AC50 was 29.1 µM [falling, single point].

On to `Cc1cc(C)nc(N/C(=N/S(=O)(=O)Cc2ccccc2)Nc2ccccc2)n1`, for which the cell number change worked out at 21.7%. In addition, under setting [1], the AC50 was 0.326 µM [rising, full curve, poor fit].

`CCN(CC)CCN(C(=O)c1ccc2c(c1)OCCO2)c1nc2ccc(C)cc2s1`: the cell number change is 5.95%. In addition, the AC50 under setting [1] is 2.06 µM [rising, partial curve, poor fit].

Turning to `CCn1c2ccccc2c2cc(NC(=O)c3ccccc3[N+](=O)[O-])ccc21`, the cell number change is -21.2%. In addition, the AC50 under setting [1] is 1.16 µM [rising, full curve, poor fit].

In the case of `CCCn1ncc(CN2CCC(C(=O)Nc3cccc(-c4cccc(F)c4)c3)CC2)c1C`, the cell number change is -36.6%. Also, the AC50 under setting [2] was 0.0366 µM [falling, full curve, poor fit]. Also, the AC50 under setting [1] was 11.6 µM [falling, single point].

In the case of `Cc1cccc(N2C(=O)C(Oc3ccc(Cl)cc3Cl)C2C=O)c1C` (stereo not given), the cell number change was -61.9%. Also, the half-maximal activity concentration (AC50) under setting [2] was 32.6 µM [falling, partial curve, poor fit]. The AC50 under setting [1] is 0.58 µM [falling, single point].

Turning to `CN(C)N1C(N)=C(C#N)C(c2ccsc2)C2=C1CC(C)(C)CC2=O` (stereo not given), the AC50 under setting [1] is 0.461 µM [falling, single point].
